For this assay, the target named is 甲状腺素受体相互作用蛋白15 (thyroid receptor interacting protein 15, TRIP15) (human) (UniProt P61201). Description: in vitro precipitation (pull-down) of human TRIP15 protein by the GST-scFv fusion.

Amino acid sequences for entries named in this document (tags omitted). A change or cut given only in a name is not applied to a line headed by its entry.
UniProt P61201: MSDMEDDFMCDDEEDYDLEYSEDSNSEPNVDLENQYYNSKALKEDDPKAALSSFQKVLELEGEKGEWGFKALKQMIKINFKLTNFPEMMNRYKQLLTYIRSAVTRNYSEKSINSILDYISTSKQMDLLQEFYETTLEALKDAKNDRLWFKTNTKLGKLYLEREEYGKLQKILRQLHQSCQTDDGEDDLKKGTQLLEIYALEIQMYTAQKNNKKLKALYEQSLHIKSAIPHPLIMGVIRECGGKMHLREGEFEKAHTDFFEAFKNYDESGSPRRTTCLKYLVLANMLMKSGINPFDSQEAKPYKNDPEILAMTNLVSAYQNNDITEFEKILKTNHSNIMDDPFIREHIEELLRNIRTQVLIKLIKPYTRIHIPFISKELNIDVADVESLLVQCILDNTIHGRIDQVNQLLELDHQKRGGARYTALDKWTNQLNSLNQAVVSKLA

These are yes or no findings as the source states them, for the method shown. In cells and extracts the contact can be indirect. Some entries that bind do so weakly or less than the wild type. Sequences can lack the tags named with a protein.

B1: GST-抗TRIP15单链抗体的融合蛋白 (GST-fused anti-TRIP15 single-chain antibody) (scFv)
chain: EVQLLESGGGLVQPGGSLRLSCAASGFTFSSYAMSWVRQAPGKGLEWVSSISNDGLKTLYADSVKGRFTISRDNSKNTLYLQMNSLRAEDTAVYYCAKNTGSFDYWGQGTLVTVSSGGGGSGGGGSGGSAQDIQMTQSPSSLSASVGDRVTITCRASQSISSYLNWYQQKPGKAPKLLIYRASNLQSGVPSRFSGSGSGTDFTLTISSLQPEDFATYYCQQVLRRPATFGQGTKVEIKR
Regarding B1, the binding entry was “binds”.

For the origin of these results see patent publication CN1618813A.
